Some of the results follow. These are further read-outs of the screen, such as a control signal, another cell line or another target. No call is given for them. The list favours compounds with an active or inconclusive main result. Words in brackets tell the shape of the fitted curve; partial curves, single points and poor fits give uncertain potencies.
Assay: qHTS Assay for Modulators of Lamin A Splicing
Settings: HeLa LMNA splicing GFP/RFP minigene ratio, 48 h
Procedure, shortened: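 Read-out is the ratio of GFP to DsRed2 object intensity, acquired by 488 nm laser-scanning cytometry on HeLa lamin A-EGFP minigene reporter cells. Compound incubation 48 hrs at 37 °C in Opti-MEM with 2% FBS; DMSO 0.5% final.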

[1] = measured here: GFP splicing reporter channel
[2] = measured here: RFP viability control channel

**Q.** With CCc1ccccc1NC(=O)Nc1cc(C(=O)NCc2ccc(OC)cc2)ccc1N1CCCC1 as the compound, how does the AC50 [1] read?
**A.** 17.8 µM [falling, single point]

**Q.** What about the AC50 [2] of the same compound?
**A.** 17.8 µM [falling, partial curve]

**Q.** Which results are given for COCCCNC(=O)COc1ccc(Br)cc1Cl?
**A.** AC50 [1]: 15.8 µM [rising, partial curve, poor fit]; AC50 [2]: 0.708 µM [rising, partial curve, poor fit]

**Q.** Which AC50 [2] does the source give for CC(C)=CCN1CCN(Cc2cccn2-c2ncccn2)CC1CCO (stereo not drawn) here?
**A.** 35.5 µM [rising, single point]

**Q.** Which AC50 [2] does the source give for c1c2c(cc3sc(N4CCCCC4)nc13)OCO2 here?
**A.** 20 µM [rising, single point]

**Q.** With CC1(C)O[C@@H]2C[C@H]3[C@@H]4C[C@H](F)C5=CC(=O)C=C[C@]5(C)[C@@]4(F)[C@@H](O)C[C@]3(C)[C@]2(C(=O)CO)O1 as the compound, how does the AC50 [1] read?
**A.** 5.62 µM [rising, partial curve, poor fit]

**Q.** What about the AC50 [2] of the same compound?
**A.** 35.5 µM [rising, single point]

**Q.** For O=C(CCc1ccc(Oc2cc([N+](=O)[O-])cc([N+](=O)[O-])c2)cc1)Nc1cccc(Cl)c1, which AC50 [2] is on record?
**A.** 35.5 µM [rising, single point]

**Q.** Which AC50 [1] does the source give for Cc1ccc(N=Cc2nc(-c3ccc(C)cc3)oc2O)cc1 here?
**A.** 5.62 µM [rising, single point]

**Q.** With O=C(c1ccc(Cl)cc1)C1CCCN(C(=O)/C=C/c2ccccn2)C1 (stereo not drawn) as the compound, how does the AC50 [1] read?
**A.** 12.6 µM [falling, partial curve]

**Q.** What about the AC50 [2] of the same compound?
**A.** 0.0794 µM [falling, full curve, poor fit]

**Q.** With CC(C)(C)C(=O)N1CCC[C@H]1C(O)(c1ccccc1)c1ccccc1 as the compound, how does the AC50 [1] read?
**A.** 2.24 µM [rising, full curve, poor fit]

**Q.** What about the AC50 [2] of the same compound?
**A.** 5.62 µM [rising, full curve]

**Q.** With O=C(NCc1ccco1)c1cc(S(=O)(=O)N2CCCc3ccccc32)ccc1Cl as the compound, how does the AC50 [1] read?
**A.** 8.91 µM [rising, partial curve]

**Q.** What about the AC50 [2] of the same compound?
**A.** 35.5 µM [rising, single point]

**Q.** Which AC50 [1] does the source give for CCN(c1ccccc1)S(=O)(=O)c1ccc2[nH]cc(C(=O)NCc3ccc(C)cc3)c(=O)c2c1 here?
**A.** 15.8 µM [falling, partial curve, poor fit]

**Q.** And the AC50 [2]?
**A.** 15.8 µM [falling, partial curve]

**Q.** Which results are given for CCOC(=O)c1c(CSc2ccc(C)cc2)oc2ccc(O)cc12?
**A.** AC50 [1]: 31.6 µM [rising, single point]; AC50 [2]: 35.5 µM [rising, single point]

**Q.** For COc1cccc(NC(=O)C(OC(=O)/C=C/c2ccc3c(c2)OCO3)c2ccccc2)c1 (stereo not drawn), which AC50 [2] is on record?
**A.** 3.98 µM [falling, single point]

**Q.** For COc1ccc(-c2nnc(SC)o2)c(OC)c1, which AC50 [2] is on record?
**A.** 0.0631 µM [rising, full curve]

**Q.** With N#CCCn1c(=O)c(-c2cccs2)nc2cnc(Nc3ccccc3)nc21 as the compound, how does the AC50 [1] read?
**A.** 12.6 µM [falling, partial curve]

**Q.** And the AC50 [2]?
**A.** 7.94 µM [falling, partial curve]

**Q.** For OCCNCc1cc(Br)ccc1OCc1ccccc1Cl, which AC50 [2] is on record?
**A.** 17.8 µM [rising, single point]

**Q.** Which AC50 [1] does the source give for Cc1ccc(C2(CC(=O)Nc3nccs3)CCOC(C(C)C)C2)cc1 (stereo not drawn) here?
**A.** 35.5 µM [rising, single point]

**Q.** What about the AC50 [2] of the same compound?
**A.** 35.5 µM [rising, single point]

**Q.** Which results are given for CCOc1ccc(C(C)NC(=O)c2cccc(F)c2)cc1 (stereo not drawn)?
**A.** AC50 [1]: 11.2 µM [rising, single point]; AC50 [2]: 20 µM [rising, single point]

**Q.** With Cc1cc(C)nc(NS(=O)(=O)c2ccc(N)cc2)n1 as the compound, how does the AC50 [1] read?
**A.** 0.2 µM [falling, single point]

**Q.** With O=c1[nH]c(=O)n(Cc2ccccc2)c2nc(-c3ccco3)cc(C(F)(F)F)c12 as the compound, how does the AC50 [1] read?
**A.** 12.6 µM [rising, partial curve]

**Q.** Which results are given for COc1ccc(-c2nc3sc(CCNS(=O)(=O)c4ccc(F)c(C)c4)c(C)n3n2)cc1?
**A.** AC50 [1]: 5.01 µM [falling, partial curve]; AC50 [2]: 35.5 µM [falling, partial curve, poor fit]

**Q.** Which AC50 [1] does the source give for Cc1cc(S(=O)(=O)NCC(c2ccc(N(C)C)cc2)N2CCOCC2)ccc1F (stereo not drawn) here?
**A.** 1.58 µM [rising, partial curve, poor fit]

**Q.** With CCCCCC1CC(=O)N(Cc2ccc(Cl)cc2)C(=O)N1 (stereo not drawn) as the compound, how does the AC50 [1] read?
**A.** 14.1 µM [rising, partial curve]

**Q.** And the AC50 [2]?
**A.** 35.5 µM [rising, single point]

**Q.** With O=C(COc1ccccc1)NNc1nc2c(F)cccc2s1 as the compound, how does the AC50 [2] read?
**A.** 3.16 µM [rising, full curve, poor fit]

**Q.** Which AC50 [1] does the source give for CCOC(=O)N1CCN(C(=O)COc2ccc(Br)cc2Cl)CC1 here?
**A.** 12.6 µM [rising, single point]

**Q.** Which AC50 [1] does the source give for Fc1cc(F)cc(NC(=S)N2CCC(c3ccccc3)C2)c1 (stereo not drawn) here?
**A.** 3.98 µM [rising, single point]

**Q.** Which AC50 [1] does the source give for CCOC(=O)N1CCC(NC(=O)c2cc(S(=O)(=O)N3CCOCC3)ccc2F)CC1 here?
**A.** 17.8 µM [rising, partial curve, poor fit]

**Q.** Which AC50 [1] does the source give for CN(C(=O)CN(CCO)CC(=O)N(C)C(C)(C)Cc1ccccc1)C(C)(C)Cc1ccccc1 here?
**A.** 0.0562 µM [falling, single point]

**Q.** What about the AC50 [2] of the same compound?
**A.** 0.0447 µM [falling, single point]

**Q.** With O=C(Nc1ccc(Cl)cc1)c1csc(Cc2ccccc2)n1 as the compound, how does the AC50 [1] read?
**A.** 17.8 µM [falling, partial curve, poor fit]

**Q.** Which AC50 [2] does the source give for O=C(COC(=O)CC1CC2CCC1C2)Nc1cc([N+](=O)[O-])ccc1F (stereo not drawn) here?
**A.** 0.708 µM [rising, full curve, poor fit]

**Q.** Which AC50 [2] does the source give for Cn1nc(C(F)(F)F)c(C#N)c1N1CCN(c2ccccc2)CC1 here?
**A.** 12.6 µM [rising, partial curve, poor fit]

**Q.** Which AC50 [2] does the source give for O=C(CCC(=O)N1CCN(S(=O)(=O)c2ccc(Cl)cc2)CC1)Nc1ccc2ccccc2c1 here?
**A.** 25.1 µM [rising, single point]

**Q.** Which AC50 [1] does the source give for O=C1C(c2ccc(F)cc2)N(Cc2ccc3c(c2)OCO3)C(=O)CN1C1CCCC1 (stereo not drawn) here?
**A.** 11.2 µM [rising, partial curve, poor fit]

**Q.** What does the source list for COc1cccc(C(=O)N2CCN(C(=O)c3ccc(-c4ccccc4)cc3)CC2)c1OC?
**A.** AC50 [1]: 35.5 µM [falling, single point]; AC50 [2]: 35.5 µM [falling, single point]

**Q.** With Cc1c(/C=N/NC(=O)c2ccc(O)cc2)c2ccccn2c1C(=O)c1ccc(F)cc1 as the compound, how does the AC50 [1] read?
**A.** 35.5 µM [rising, single point]

**Q.** And the AC50 [2]?
**A.** 35.5 µM [rising, partial curve]

**Q.** What does the source list for O=c1cnc2cncnc2n1Cc1ccc(F)cc1?
**A.** AC50 [1]: 3.98 µM [falling, full curve]; AC50 [2]: 3.98 µM [falling, full curve]

**Q.** With Cc1[nH]c(=O)[nH]c(=O)c1S(=O)(=O)N1CCN(c2cccc(Cl)c2)CC1 as the compound, how does the AC50 [2] read?
**A.** 0.0562 µM [falling, full curve, poor fit]

**Q.** Which results are given for Cc1cccc(Cn2cc(C(=O)Nc3ccc(S(N)(=O)=O)cc3)ccc2=O)c1?
**A.** AC50 [1]: 11.2 µM [falling, partial curve]; AC50 [2]: 0.891 µM [falling, full curve]

**Q.** With COc1cccc(N2CCN(c3c4c(nc5ncnn35)CCC4)CC2)c1 as the compound, how does the AC50 [1] read?
**A.** 12.6 µM [rising, partial curve]

**Q.** And the AC50 [2]?
**A.** 10 µM [rising, partial curve]

**Q.** Which AC50 [1] does the source give for COC(=O)c1c(NC(=O)CN2CCC3(O)CCCCC3C2c2cc(OC)ccc2OC)sc(C)c1C (stereo not drawn) here?
**A.** 8.91 µM [rising, partial curve]

**Q.** And the AC50 [2]?
**A.** 14.1 µM [rising, partial curve]

**Q.** Which AC50 [2] does the source give for COc1ccc(Cl)cc1NC(=O)N1CCC(CN2CCCCCC2)CC1 here?
**A.** 7.08 µM [falling, partial curve, poor fit]

**Q.** For CSc1cccc(NC(=O)Cn2cnc(S(=O)(=O)N3CCCC3)c2)c1, which AC50 [2] is on record?
**A.** 12.6 µM [rising, partial curve, poor fit]

**Q.** With O=C(Nc1ccccc1OCc1cc(=O)n2ccccc2n1)c1ccccc1F as the compound, how does the AC50 [2] read?
**A.** 0.0251 µM [rising, full curve, poor fit]

**Q.** With Cc1ccc(C(=O)NC(NC(=S)Nc2ccc(S(N)(=O)=O)cc2)C(Cl)(Cl)Cl)cc1 (stereo not drawn) as the compound, how does the AC50 [2] read?
**A.** 35.5 µM [rising, single point]

**Q.** With O=C(NCc1ccc2c(c1)OCO2)C1CCCN(S(=O)(=O)c2cccc3cccnc23)C1 (stereo not drawn) as the compound, how does the AC50 [2] read?
**A.** 14.1 µM [rising, single point]

**Q.** Which AC50 [1] does the source give for CC(=O)N1c2ccc(Cl)cc2C2C=CCC2C1c1cccc2ccccc12 (stereo not drawn) here?
**A.** 15.8 µM [falling, partial curve, poor fit]

**Q.** What about the AC50 [2] of the same compound?
**A.** 14.1 µM [falling, partial curve, poor fit]

**Q.** With CCOC(=O)c1c(C)nc(-c2ccccc2)nc1NC(C)=O as the compound, how does the AC50 [2] read?
**A.** 7.08 µM [rising, partial curve, poor fit]

**Q.** With Cc1cccc(Nc2nc(NCc3ccco3)c3ccccc3n2)c1 as the compound, how does the AC50 [1] read?
**A.** 2 µM [rising, partial curve]

**Q.** What about the AC50 [2] of the same compound?
**A.** 3.55 µM [rising, partial curve]

**Q.** With Cc1ccc(OCC(=O)Nc2ccc(N3CCN(C(=O)c4ccco4)CC3)cc2)cc1C as the compound, how does the AC50 [1] read?
**A.** 10 µM [falling, partial curve]

**Q.** What about the AC50 [2] of the same compound?
**A.** 1.41 µM [falling, full curve]

**Q.** For COC(=O)CSc1nc(C)cc(C)n1, which AC50 [1] is on record?
**A.** 3.16 µM [rising, partial curve, poor fit]

**Q.** Which AC50 [1] does the source give for Cc1ccc2cccc(OCCOCCOc3ccccc3Br)c2n1 here?
**A.** 15.8 µM [rising, single point]

**Q.** What about the AC50 [2] of the same compound?
**A.** 14.1 µM [rising, single point]

**Q.** With Cc1sc2ncnc(Sc3nnnn3-c3ccccc3)c2c1C as the compound, how does the AC50 [2] read?
**A.** 12.6 µM [rising, partial curve]

**Q.** For CN(C)C(=O)c1ccc2c(c1)C1C3CCC(C3)C1C(c1ccccc1)N2 (stereo not drawn), which AC50 [1] is on record?
**A.** 35.5 µM [rising, single point]

**Q.** And the AC50 [2]?
**A.** 35.5 µM [rising, single point]
